# Measurements: publication PMC11199983
# Amino acid sequences for entries named in this document (tags omitted). Residues count along the entry.
# UniProt Q9P0V8, residues 23-285: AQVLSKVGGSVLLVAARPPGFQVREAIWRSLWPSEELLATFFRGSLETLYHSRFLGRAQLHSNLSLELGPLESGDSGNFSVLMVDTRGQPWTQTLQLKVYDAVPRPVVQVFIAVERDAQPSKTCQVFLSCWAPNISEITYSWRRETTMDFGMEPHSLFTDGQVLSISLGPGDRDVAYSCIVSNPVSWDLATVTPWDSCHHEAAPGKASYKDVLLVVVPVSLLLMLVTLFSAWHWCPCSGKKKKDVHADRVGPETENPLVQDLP
# UniProt Q9NP99, residues 21-234: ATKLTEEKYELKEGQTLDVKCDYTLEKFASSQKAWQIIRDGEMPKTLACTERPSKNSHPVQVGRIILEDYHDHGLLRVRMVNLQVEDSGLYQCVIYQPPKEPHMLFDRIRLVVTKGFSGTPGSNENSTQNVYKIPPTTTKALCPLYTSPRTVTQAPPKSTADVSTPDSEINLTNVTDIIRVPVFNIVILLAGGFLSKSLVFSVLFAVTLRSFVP
# UniProt O00206, residues 24-839: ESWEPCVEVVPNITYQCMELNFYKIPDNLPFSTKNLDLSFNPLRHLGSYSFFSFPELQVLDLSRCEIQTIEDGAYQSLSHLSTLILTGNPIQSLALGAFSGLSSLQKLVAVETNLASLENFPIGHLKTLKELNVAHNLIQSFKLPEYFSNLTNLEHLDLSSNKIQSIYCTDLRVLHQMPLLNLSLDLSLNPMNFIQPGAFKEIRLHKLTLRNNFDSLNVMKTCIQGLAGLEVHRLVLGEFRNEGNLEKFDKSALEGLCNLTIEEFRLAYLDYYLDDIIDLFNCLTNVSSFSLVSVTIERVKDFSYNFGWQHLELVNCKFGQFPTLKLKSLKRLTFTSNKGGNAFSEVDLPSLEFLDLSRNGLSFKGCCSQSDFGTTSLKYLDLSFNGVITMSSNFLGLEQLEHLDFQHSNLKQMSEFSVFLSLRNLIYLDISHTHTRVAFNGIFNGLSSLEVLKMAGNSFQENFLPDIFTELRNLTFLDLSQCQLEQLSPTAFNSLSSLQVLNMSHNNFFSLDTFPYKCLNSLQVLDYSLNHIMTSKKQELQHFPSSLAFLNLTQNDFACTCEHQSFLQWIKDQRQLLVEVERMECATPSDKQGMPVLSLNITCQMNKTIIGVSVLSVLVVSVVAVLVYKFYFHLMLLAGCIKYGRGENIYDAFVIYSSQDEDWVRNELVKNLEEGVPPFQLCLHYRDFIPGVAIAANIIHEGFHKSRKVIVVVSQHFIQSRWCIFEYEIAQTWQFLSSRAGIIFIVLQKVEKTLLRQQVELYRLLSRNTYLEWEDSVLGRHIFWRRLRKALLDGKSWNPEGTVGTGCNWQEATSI
# Results are given in words; binding and its absence hold for the method and conditions named. Binding seen in cells or lysates may run through a third protein. Some entries that bind do so weakly or less than the wild type.
# What was measured:
# [1] = molecular target: signaling lymphocyte activating molecule family member 8 (SLAMF8) (human (endogenous in THP-1; species of the FLAG-labeled cDNA not stated)) (UniProt Q9P0V8); assay: co-IP; THP-1 cell lysate, precleared with protein A+G agarose plus species-specific IgG (4 °C, 2 h); anti-FLAG or control IgG at 4 °C overnight, protein A+G agarose 3 h, washed three times with PBS, western blot; also done after SLAMF8 knockdown (Figure S2C: interaction of SLAMF8 with TREM1 attenuated)
# [2] = molecular target: Triggering receptor expressed on myeloid cells 1 (TREM1) (human) (UniProt Q9NP99); assay: as above
binding [1],binding [2],Substance
no binding,binds,TLR4 (from UniProt O00206 24-839) (receptor)
binds,,Triggering receptor expressed on myeloid cells 1 (TREM1) (from UniProt Q9NP99 21-234)
